{"source": "paper PMC11628678", "molecular_target": "T1, RAD21 (RAD21 cohesin complex component) (human (endogenous in the human SSC line)) (UniProt O60216)", "T1 sequence": "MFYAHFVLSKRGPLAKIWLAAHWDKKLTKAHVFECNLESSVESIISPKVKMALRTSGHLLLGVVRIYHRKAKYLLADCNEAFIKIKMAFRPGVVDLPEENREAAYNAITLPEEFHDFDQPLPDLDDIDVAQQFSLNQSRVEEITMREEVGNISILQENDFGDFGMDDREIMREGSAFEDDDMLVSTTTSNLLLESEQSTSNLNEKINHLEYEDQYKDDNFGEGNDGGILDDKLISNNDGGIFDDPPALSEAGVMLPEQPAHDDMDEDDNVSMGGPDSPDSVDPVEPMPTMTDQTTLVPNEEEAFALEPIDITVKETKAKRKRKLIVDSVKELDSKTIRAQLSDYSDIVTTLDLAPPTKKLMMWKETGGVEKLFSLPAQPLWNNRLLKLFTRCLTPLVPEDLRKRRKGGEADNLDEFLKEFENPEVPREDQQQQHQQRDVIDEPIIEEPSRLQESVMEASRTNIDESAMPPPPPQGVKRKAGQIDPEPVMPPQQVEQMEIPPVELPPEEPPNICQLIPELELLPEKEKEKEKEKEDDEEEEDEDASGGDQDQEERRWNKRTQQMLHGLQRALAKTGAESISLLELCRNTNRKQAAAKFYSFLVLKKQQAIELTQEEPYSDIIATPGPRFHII", "assay": "co-IP; endogenous proteins; human SSC line lysed in the binding/washing buffer of the Pierce IP/Co-IP kit; 10 ug anti-YAP1 or anti-RAD21 antibody overnight at 4 °C, protein A/G magnetic beads 2 h at room temperature; Western blot", "note": "These are yes or no findings as the source states them, for the method shown. Binding seen in cells or lysates may run through a third protein. Some entries that bind do so weakly or less than the wild type.", "data": [{"substance": "Yes1-associated transcriptional regulator (YAP1) (from UniProt P46937-9 1-508)", "values": [{"measurement": "binding", "result": "binds"}]}]}
